The list does not hold the whole screen: it gathers tests that were run many times, whatever their T/C, doses with no T/C, and many T/C values between a quarter and a half above the control. Further doses and runs are listed elsewhere. T/C is the treated group as % of the vehicle group. Some entries give survivors of the animals treated and no T/C: the source files T/C as zero there, which appears to mark a toxic dose or a test without result, not a measured value. Some survivor counts are full or nearly so, which does not show that the dose was tolerated: survival well below the control is almost never listed, so the zero probably covers shortened survival too. Counts of survivors are from the toxicity check (mostly the fifth day) where no day follows; animals may have died later. Schedules are NCI's codes, read here as Q, the interval in days (D) or hours (H), X, the number of doses. Some entries hold several experiments; their values stand side by side, smallest first. Marks such as (2×) give the number of equal values in this list. For survival time, this PubChem deposit counts one and a half times the control or more as active, and values a quarter to a half above the control carry no call in these data; other NCI protocols may use other cut-offs.
System: L1210 leukemia ip in BDF1 mice, survival T/C
Test: NCI In Vivo Anticancer Drug Screen. Data for tumor model L1210 Leukemia (intraperitoneal) in B6D2F1 (BDF1) mice
Conditions: T/C endpoint: median survival time, vehicle: saline, higher T/C = longer survival
[1] = dose: 160.0 mg/kg/injection, schedule: Q01DX009 (ip)

SMILES: O=P1(N(CCCl)CCCl)NCCCO1 (centres undefined)
- T/C (dose: 108.0 mg/kg/injection, schedule: Q07DX003 (ip), evaluated on day 46): 205 % of control
- T/C (dose: 108.0 mg/kg/injection, schedule: Q07DX004 (ip), evaluated on day 7): 251 and 269 % of control
- T/C (dose: 108.0 mg/kg/injection, schedule: Q07DX004 (ip), evaluated on day 60): 261 and 272 % of control
- T/C (dose: 150.0 mg/kg/injection, schedule: Q07DX003 (ip), evaluated on day 7): 239, 278, 302 % of control
- T/C (dose: 150.0 mg/kg/injection, schedule: Q07DX003 (ip), evaluated on day 34): 239 % of control
- T/C (dose: 150.0 mg/kg/injection, schedule: Q07DX003 (ip), evaluated on day 63): 278 and 300 % of control
- survivor count (dose: 160.0 mg/kg/injection, schedule: Q01DX005 (ip)): 6 of 6
- T/C [1]: 93 % of control
- survivor count [1]: 6 of 6 and 8 of 8 (2×)
- T/C (dose: 180.0 mg/kg/injection, schedule: Q01DX001 (ip), evaluated on day 5): 177, 193, 202, 256 % of control
- T/C (dose: 180.0 mg/kg/injection, schedule: Q01DX001 (ip), evaluated on day 7): 187, 190, 200, 265 % of control
- T/C (dose: 180.0 mg/kg/injection, schedule: Q01DX001 (ip), evaluated on day 36): 195 % of control
- T/C (dose: 180.0 mg/kg/injection, schedule: Q01DX001 (ip), evaluated on day 40): 145 % of control
- T/C (dose: 180.0 mg/kg/injection, schedule: Q01DX001 (ip), evaluated on day 45): 188 % of control
- T/C (dose: 180.0 mg/kg/injection, schedule: Q01DX001 (ip), evaluated on day 46): 189 % of control
- T/C (dose: 180.0 mg/kg/injection, schedule: Q01DX001 (ip), evaluated on day 59): 172 % of control
- T/C (dose: 180.0 mg/kg/injection, schedule: Q01DX001 (ip), evaluated on day 60): 200 % of control
- T/C (dose: 180.0 mg/kg/injection, schedule: Q01DX001 (ip), evaluated on day 62): 250 % of control
- T/C (dose: 180.0 mg/kg/injection, schedule: Q01DX001 (ip), evaluated on day 69): 272 % of control
- T/C (dose: 180.0 mg/kg/injection, schedule: Q01DX001 (ip), evaluated on day 90): 205 % of control
- T/C (dose: 180.0 mg/kg/injection, schedule: Q07DX003 (ip), evaluated on day 7): 213, 240, 288 % of control
- T/C (dose: 180.0 mg/kg/injection, schedule: Q07DX003 (ip), evaluated on day 32): 213 and 240 % of control
- T/C (dose: 180.0 mg/kg/injection, schedule: Q07DX003 (ip), evaluated on day 46): 289 % of control
- T/C (dose: 180.0 mg/kg/injection, schedule: Q07DX004 (ip), evaluated on day 7): 269 and 336 % of control
- T/C (dose: 180.0 mg/kg/injection, schedule: Q07DX004 (ip), evaluated on day 60): 277 and 327 % of control
- T/C (dose: 200.0 mg/kg/injection, schedule: Q01DX001 (ip), evaluated on day 7): 165, 173, 182, 197, 198 (3×), 205, 215, 223, 236, 237, 259, 285 % of control
- T/C (dose: 200.0 mg/kg/injection, schedule: Q01DX001 (ip), evaluated on day 26): 165 % of control
- T/C (dose: 200.0 mg/kg/injection, schedule: Q01DX001 (ip), evaluated on day 30): 121, 311, 337 % of control
- T/C (dose: 200.0 mg/kg/injection, schedule: Q01DX001 (ip), evaluated on day 35): 197 % of control
- T/C (dose: 200.0 mg/kg/injection, schedule: Q01DX001 (ip), evaluated on day 43): 180 % of control
- T/C (dose: 200.0 mg/kg/injection, schedule: Q01DX001 (ip), evaluated on day 44): 140 % of control
- T/C (dose: 200.0 mg/kg/injection, schedule: Q01DX001 (ip), evaluated on day 45): 200 % of control
- T/C (dose: 200.0 mg/kg/injection, schedule: Q01DX001 (ip), evaluated on day 60): 238 % of control
- T/C (dose: 200.0 mg/kg/injection, schedule: Q01DX001 (ip), evaluated on day 62): 285 % of control
- T/C (dose: 200.0 mg/kg/injection, schedule: Q01DX001 (ip), evaluated on day 63): 215 and 223 % of control
- T/C (dose: 200.0 mg/kg/injection, schedule: Q01DX001 (ip), evaluated on day 64): 240 % of control
- T/C (dose: 200.0 mg/kg/injection, schedule: Q08DX002 (ip), evaluated on day 7): 192, 217, 300 % of control
- T/C (dose: 200.0 mg/kg/injection, schedule: Q08DX002 (ip), evaluated on day 43): 190 % of control
- T/C (dose: 200.0 mg/kg/injection, schedule: Q08DX002 (ip), evaluated on day 44): 210 % of control
- T/C (dose: 200.0 mg/kg/injection, schedule: Q08DX002 (ip), evaluated on day 46): 300 % of control
- T/C (dose: 300.0 mg/kg/injection, schedule: Q01DX001 (ip), evaluated on day 5): 240, 364, 507, 653 % of control
- T/C (dose: 300.0 mg/kg/injection, schedule: Q01DX001 (ip), evaluated on day 7): 218, 258, 260, 282, 651, 727, 729 % of control
- T/C (dose: 300.0 mg/kg/injection, schedule: Q01DX001 (ip), evaluated on day 36): 255 % of control
- T/C (dose: 300.0 mg/kg/injection, schedule: Q01DX001 (ip), evaluated on day 45): 500 % of control
